Experiment [1] addresses C-terminally tagged CFP- and YFP-Orai1 (Orai1-WT) (human) (UniProt Q96D31). The experiment in a line: FRET or BRET; Orai1-Orai1 FRET between C-terminally CFP- and YFP-tagged copies expressed as a mixture in cells; before and after store depletion. On the technique in general: In BRET a luciferase serves as donor, and the signal depends on an acceptor being close.
Experiment [2] has as its target C-terminally tagged CFP- and YFP-Orai1-ANSGA (human) (UniProt Q96D31). The experiment is described as above.

Sequences of proteins named here, by UniProt entry; tags and fusion partners are left off. A change or cut given only in a name is not applied to a line headed by its entry. A line that says so, or that is headed by a name, gives the form on record, which may keep a tag or linker.
UniProt Q96D31: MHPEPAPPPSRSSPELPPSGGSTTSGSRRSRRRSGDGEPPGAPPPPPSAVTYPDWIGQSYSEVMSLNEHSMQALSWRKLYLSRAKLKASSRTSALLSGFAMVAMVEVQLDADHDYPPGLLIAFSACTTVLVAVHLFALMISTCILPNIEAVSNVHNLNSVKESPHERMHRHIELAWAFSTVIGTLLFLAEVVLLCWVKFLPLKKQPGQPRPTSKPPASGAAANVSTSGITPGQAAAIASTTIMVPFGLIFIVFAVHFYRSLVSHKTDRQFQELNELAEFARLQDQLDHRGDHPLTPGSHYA
C-terminally tagged CFP- and YFP-Orai1-ANSGA (Q96D31, form named): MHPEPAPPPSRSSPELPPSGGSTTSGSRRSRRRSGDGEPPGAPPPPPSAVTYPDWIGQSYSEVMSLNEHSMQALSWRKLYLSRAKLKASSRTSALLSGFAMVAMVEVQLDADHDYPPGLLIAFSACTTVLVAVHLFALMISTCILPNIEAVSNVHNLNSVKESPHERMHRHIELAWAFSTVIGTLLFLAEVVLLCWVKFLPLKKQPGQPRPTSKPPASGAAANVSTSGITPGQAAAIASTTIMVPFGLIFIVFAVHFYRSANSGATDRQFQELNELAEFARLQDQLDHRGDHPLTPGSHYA

No constants are given. Whether binding was seen depends on the method and setting. In cells and extracts the contact can be indirect. Some binding calls cover weakened binding; strength is not graded here.

Turning to “C-terminally tagged CFP- and YFP-Orai1 (Orai1-WT) (from UniProt Q96D31 1-301)”, the binding entry in experiment [1] is given as “binds”.
In the case of “C-terminally tagged CFP- and YFP-Orai1-ANSGA (from UniProt Q96D31 1-301)”, the binding entry in experiment [2] is given as “binds”.
